PubChem BioAssay AID504784 – Drosophila RNAi Screening Center, 2011
The screen tested about 17,000 reagents; below is a random part of those that have a named target and a result. 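Each column is one replicate's B-score; the combined score over replicates was not deposited, so single values may mislead.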 Reagents against one gene are numbered here. A plus sign joins genes that one reagent is predicted to hit. Further read-outs or replicates are left out here.

Test: 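Search for regulators of lipid droplet storage in oleate-fed fly cells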 (primary screen)
System: Drosophila Kc167 embryonic cells
Reagents: long dsRNA against Drosophila genes, about 250 ng dsRNA per well
Time to read-out: 4 days
Treatment: cells fed 400 µM oleic acid bound to BSA
Measured: 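Cells imaged and segmented; ratio of lipid droplet area to nuclear area, log-transformed, then normalised as a B-score over the screen; higher means more stored lipid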
Scale: droplet/nuclear area B-score: higher = more stored lipid (overstorage)

CG16824 | droplet/nuclear area B-score, replicate 1 = 0.746
wde | droplet/nuclear area B-score, replicate 1 = -0.00377
Myb | droplet/nuclear area B-score, replicate 1 = 1.43
Rbp1-like #1 | droplet/nuclear area B-score, replicate 1 = -0.977
Rbp1-like #2 | droplet/nuclear area B-score, replicate 1 = 1.21
Papss | droplet/nuclear area B-score, replicate 1 = -1.05
Elp2 | droplet/nuclear area B-score, replicate 1 = 0.526
Gr59c | droplet/nuclear area B-score, replicate 1 = 1.51
CG31098 | droplet/nuclear area B-score, replicate 1 = 0.839
Cpr62Bc | droplet/nuclear area B-score, replicate 1 = 1.71
UGP | droplet/nuclear area B-score, replicate 1 = -0.96
CG4168 #1 | droplet/nuclear area B-score, replicate 1 = 0.0363
CG4168 #2 | droplet/nuclear area B-score, replicate 1 = -1.6
CG4168 #3 | droplet/nuclear area B-score, replicate 1 = 0.388
CG4168 #4 | droplet/nuclear area B-score, replicate 1 = -1.14
CG34229 | droplet/nuclear area B-score, replicate 1 = 1.75
Acp24A4 | droplet/nuclear area B-score, replicate 1 = -0.341
CG31097 | droplet/nuclear area B-score, replicate 1 = 0.339
Ir11a | droplet/nuclear area B-score, replicate 1 = -1.66
CG31128 | droplet/nuclear area B-score, replicate 1 = -0.0338
CG15025 | droplet/nuclear area B-score, replicate 1 = -0.91
eIF3d1 | droplet/nuclear area B-score, replicate 1 = 0.0575
CheB98a | droplet/nuclear area B-score, replicate 1 = 0.58
EcR #1 | droplet/nuclear area B-score, replicate 1 = -0.717
EcR #2 | droplet/nuclear area B-score, replicate 1 = 0.379
CG10280 | droplet/nuclear area B-score, replicate 1 = -2.81
Pih1D1 | droplet/nuclear area B-score, replicate 1 = 0.454
Mst27D | droplet/nuclear area B-score, replicate 1 = 1
disp | droplet/nuclear area B-score, replicate 1 = 3.28
Dic3 | droplet/nuclear area B-score, replicate 1 = -0.616
CG1695 | droplet/nuclear area B-score, replicate 1 = -0.706
ft | droplet/nuclear area B-score, replicate 1 = 0.283
CG17742 (retired record) | droplet/nuclear area B-score, replicate 1 = -0.211
Obp28a | droplet/nuclear area B-score, replicate 1 = 0.945
gprs | droplet/nuclear area B-score, replicate 1 = -0.712
fs(1)M3 | droplet/nuclear area B-score, replicate 1 = -0.223
CG32278 + CG14963 | droplet/nuclear area B-score, replicate 1 = -0.266
CG42340 #1 | droplet/nuclear area B-score, replicate 1 = -0.00222
CG42340 #2 | droplet/nuclear area B-score, replicate 1 = -0.00419
CG42340 #3 | droplet/nuclear area B-score, replicate 1 = 0.308
CG42340 #4 | droplet/nuclear area B-score, replicate 1 = -0.694
Sh3beta #1 | droplet/nuclear area B-score, replicate 1 = -0.441
Sh3beta #2 | droplet/nuclear area B-score, replicate 1 = -0.267
Ldh | droplet/nuclear area B-score, replicate 1 = 0.981
AGO1 | droplet/nuclear area B-score, replicate 1 = 2.63
CG3857 | droplet/nuclear area B-score, replicate 1 = -0.0529
RluA-2 | droplet/nuclear area B-score, replicate 1 = -0.823
CG11227 | droplet/nuclear area B-score, replicate 1 = 0.406
Obp58b | droplet/nuclear area B-score, replicate 1 = 0.321
CG15882 | droplet/nuclear area B-score, replicate 1 = -0.11
SmD3 | droplet/nuclear area B-score, replicate 1 = 1.57

6 entries already listed, ordered by “droplet/nuclear area B-score, replicate 1”, highest first:
disp | droplet/nuclear area B-score, replicate 1 = 3.28
Mst27D | droplet/nuclear area B-score, replicate 1 = 1
ft | droplet/nuclear area B-score, replicate 1 = 0.283
CG17742 (retired record) | droplet/nuclear area B-score, replicate 1 = -0.211
Dic3 | droplet/nuclear area B-score, replicate 1 = -0.616
CG1695 | droplet/nuclear area B-score, replicate 1 = -0.706
